{"source": "ChEMBL document CHEMBL4296182", "about": "“CO-ADD screening of NIH NCI Diversity Set V”", "note": "The other results are listed elsewhere or left out. Results with a measured potency or affinity are listed apart.", "data": [{"tested_on": "Pseudomonas aeruginosa", "details": "Concentration 20 uM; ASSAY_TEST Inhibition of Bacterial Growth; detection method Absorption (OD600); MEDIA CAMHB; plate type 384well; NBS; CORNING #3640; time 18 hr", "units": {"Inhibition": "%"}, "values": [{"smiles": "CC(=O)OCCN1c2ccccc2Sc2cnccc21", "Inhibition": -7.06}, {"smiles": "CCOC(=O)C1=C(N)N=C(N)C1=Nc1ccc(OC)cc1", "Inhibition": 4.79}, {"smiles": "O=C(O)c1nc2nc(Cl)c(Cl)nc2[nH]1", "Inhibition": 2.18}, {"smiles": "COC(=O)c1ccc(C(=O)OC)c(O)n1", "Inhibition": 4.03}, {"smiles": "Cn1c(CO)cnc1-c1ccccc1", "Inhibition": -17}, {"smiles": "CC1(C)C2CCC(CN=C(N)CSS(=O)(=O)O)C1C2", "note": "(stereo unspecified)", "Inhibition": 16.18}, {"smiles": "COC(=O)CC1OCC=C2CN3CCC45C6=CC(=O)C(=O)C([N+](=O)[O-])=C6NC4C1C2CC35", "note": "(stereo unspecified)", "Inhibition": 16.59}, {"smiles": "COc1ccc2nc3cc(Cl)ccc3c(Nc3cc(C(C)C)c(O)cc3C)c2c1", "Inhibition": 26.8}, {"smiles": "Nc1cc([N+](=O)[O-])ccc1Nc1ccc(O)cc1", "Inhibition": -4.08}, {"smiles": "Cc1cccn2c(S)nnc12", "Inhibition": 20.74}, {"smiles": "CC(=O)C1C=CC(C)(C(=O)O)C2C=C(C)C(=O)C(C)(O)C12", "note": "(stereo unspecified)", "Inhibition": 15.12}, {"smiles": "Nc1ccc(/C=C/c2ccc3ncccc3c2)cc1", "Inhibition": -0.74}, {"smiles": "COc1c(O)ccc2c1CN1CCc3cc4c(cc3C1C2)OCO4", "note": "(stereo unspecified)", "Inhibition": 19.08}, {"smiles": "CCOC(=O)c1cnc(SCC)nc1O", "Inhibition": 4.33}, {"smiles": "CCCCCCCCCCCCC(NC(C)=O)(C(=O)OCC)C(=O)OCC", "Inhibition": 27.59}, {"smiles": "CCN(CC)CCNC(=O)C(Cl)=C1C(Cl)=C(Cl)C(Cl)=C1Cl", "Inhibition": 23.23}, {"smiles": "C[C@@H]1C[C@H]2OC(=O)[C@@]3(C)CCC[C@@](C)([C@@H]23)[C@@]1(O)CCc1ccoc1", "Inhibition": -7.18}, {"smiles": "O=C(O)c1ccc(O)c(O)c1", "note": "[PROTOCATECHUIC ACID]", "Inhibition": 13.68}, {"smiles": "O=C(O)/C=C/C(=O)N1Cc2cc3ccccc3nc2C1", "Inhibition": -0.67}, {"smiles": "CC(C)=C(c1ccc(Cl)cc1)c1c(N)ncnc1N", "Inhibition": 23.07}, {"smiles": "NC(=O)c1ccc2c(c1)S(=O)(=O)c1ccccc1C2=O", "Inhibition": 11.35}, {"smiles": "CC1=C(C#N)C(C)(C)C(C#N)=C(C)N1", "Inhibition": 9.31}, {"smiles": "COC(=O)Cc1[nH]c(Cl)nc1C(N)=O", "Inhibition": -7.94}, {"smiles": "CCCCC[C@H](O)/C=C/[C@@H]1[C@@H](C/C=C\\CCCC(=O)O)[C@@H](O)C[C@H]1O.NC(CO)(CO)CO", "note": "[DINOPROST TROMETHAMINE]", "Inhibition": 16.5}, {"smiles": "COC(=O)c1cc(C)nc2c(C)cc3[nH]c4ccccc4c3c12", "Inhibition": -10.39}, {"smiles": "COc1cc2c(cc1OC)[N+]([O-])=C(c1ccccc1)C2=O", "Inhibition": 8.62}, {"smiles": "Cn1cnc([N+](=O)[O-])c1Sc1nnc(-c2cccnc2)n1C", "Inhibition": 12.12}, {"smiles": "COc1ccccc1N=NNc1ccccc1OC", "Inhibition": 12.97}, {"smiles": "Cc1nc(NC(=N)N(C)C)nc(O)c1C", "Inhibition": 11.32}, {"smiles": "CN1CCN(C(=O)/C=C/c2ccc([N+](=O)[O-])o2)CC1", "Inhibition": -8.22}, {"smiles": "COC(=O)C1(C)Cc2cc(OC(C)=O)c(OC(C)=O)cc2N1", "note": "(stereo unspecified)", "Inhibition": 28.58}, {"smiles": "N#C/C(=C\\c1cccnc1)c1ccc(Br)cc1", "Inhibition": -9.52}, {"smiles": "CN(C)CC1C2CCC(C2)C1O", "note": "(stereo unspecified)", "Inhibition": 17.74}, {"smiles": "CCCc1nc2c(=O)n(C)c(=O)n(C)c2[nH]1", "Inhibition": 11.73}, {"smiles": "Clc1nc2nc3n(c2nc1Cl)CCC3", "Inhibition": -0.45}, {"smiles": "CSc1cccc(NC(=O)Nc2ccccc2C(N)=O)c1", "Inhibition": 29.8}, {"smiles": "O=C1CCCC1C(=O)Nc1ccc2ccccc2c1", "note": "(stereo unspecified)", "Inhibition": -6.41}, {"smiles": "CCOC(=O)/C=C/c1ccc(C(=O)OCC)[nH]1", "Inhibition": 5.49}, {"smiles": "CC(C)(C)N=C(S)NC(C)(C)C", "Inhibition": -0.2}, {"smiles": "COc1cc(C(O)c2nc3ccccc3s2)cc(OC)c1OC", "note": "(stereo unspecified)", "Inhibition": 16.19}, {"smiles": "Oc1cccc2cnccc12", "Inhibition": 21.27}, {"smiles": "CCC(CO)Nc1nc2ccc(Cl)cc2c2ccccc12", "note": "(stereo unspecified)", "Inhibition": 16.3}, {"smiles": "CCCCC(=O)N(CCC)CCC", "Inhibition": 18.06}, {"smiles": "O=C(Nc1ccsn1)c1ccc(Cl)cc1Cl", "Inhibition": 10.62}, {"smiles": "CCOC(=O)C1CC(C)=C(C)CC1C(=O)O", "note": "(stereo unspecified)", "Inhibition": 0.56}, {"smiles": "COc1cc2oc3cc(C)oc(=O)c3c2cc1OC", "Inhibition": 16.39}, {"smiles": "Nc1ccc(SCc2nc3cccc4c3n2CCC4)cc1", "Inhibition": 19.18}, {"smiles": "COc1cccc2nc3cc(C)c(C)cc3nc12", "Inhibition": 17.29}, {"smiles": "COc1cc(C(=O)c2cocc2C(=O)c2ccc3c(c2)OCO3)cc(OC)c1OC", "Inhibition": 16.12}, {"smiles": "CC(=O)Nc1ccc(OCCOc2ccc([N+](=O)[O-])cc2)cc1", "Inhibition": 23.44}, {"smiles": "CCN1CCC(Nc2ccnc3cc(Cl)ccc23)CC1", "Inhibition": -3.06}, {"smiles": "CC1=NCC(C)c2ccccc21", "note": "(stereo unspecified)", "Inhibition": 15.66}, {"smiles": "CN(C)c1ccc(C(c2ccc(N(C)C)cc2)c2ccc([N+](=O)[O-])cc2)cc1", "Inhibition": 16.19}, {"smiles": "COc1ccc([N+](=O)[O-])cc1NS(=O)(=O)c1ccc(C)cc1", "Inhibition": 28.95}, {"smiles": "Cc1ccc(Nc2nnc(-c3ccc4c(c3)OCO4)o2)c(C)c1", "Inhibition": 14.11}, {"smiles": "Cc1ccc(Nc2nc(Cl)nc3ncn(C)c23)c(C)c1", "Inhibition": -3.7}, {"smiles": "Cc1nc(S)nc(O)c1Cc1c(O)ccc2ccccc12", "Inhibition": 1.78}, {"smiles": "COc1ccccc1NC(=O)Nc1cc(C(C)C)ccc1C", "Inhibition": -7.42}, {"smiles": "Cc1c([N+](=O)[O-])oc2c1C(=O)NCCC2", "Inhibition": 6.19}, {"smiles": "CN(C)c1ccc(/C=C(\\C#N)C(=O)c2ccccc2)cc1", "Inhibition": 21.3}, {"smiles": "CCC(C)NC(=O)c1cccc(C)c1", "note": "(stereo unspecified)", "Inhibition": 23.16}, {"smiles": "O=C(Nc1cccc(Cl)c1)Nc1nccs1", "Inhibition": 9.58}, {"smiles": "CCNc1nc(Cl)nc(-c2cn(-c3ccccc3)c3ccccc23)n1", "Inhibition": 19.71}, {"smiles": "CC1=CC(=C2C=CC(=O)C=C2)C=C(C)N1C", "Inhibition": -0.86}, {"smiles": "Clc1ccccc1/C=C/c1ccnc2ccccc12", "Inhibition": 8.03}, {"smiles": "Cn1ncc2c(NCc3ccccc3)ncnc21", "Inhibition": 19.06}, {"smiles": "COc1ccc(NC(=O)N2CCN(C(=O)Nc3ccc(OC)cc3)CC2)cc1", "Inhibition": -2.6}, {"smiles": "CC(=O)Oc1ccc2cc(-c3ccccc3)c(=O)oc2c1", "Inhibition": -1.9}, {"smiles": "CC(C)CNC(=O)/C=C\\C(=O)O", "Inhibition": -9.36}, {"smiles": "NS(=O)(=O)c1ccc(NC(=S)NC(=O)c2ccco2)cc1", "Inhibition": 30.83}, {"smiles": "Cc1cc(O)c2cc(C(=O)c3ccccc3)ccc2n1", "Inhibition": 5.32}, {"smiles": "CN1CCC(=C(c2ccc(Cl)cc2)c2ccccn2)CC1.O=C(O)/C=C\\C(=O)O", "note": "[CYCLIRAMINE MALEATE]", "Inhibition": 13.91}, {"smiles": "CC(C)c1ncc(CO)n1Cc1c(Cl)cccc1Cl", "Inhibition": 7.86}, {"smiles": "COCC(=O)Oc1cc(-c2ccc(C)cc2C)c(OC(=O)COC)c(-c2ccc(C)cc2C)c1", "Inhibition": 14.74}, {"smiles": "O=C(O)CSc1ccc(NC(=O)Nc2ccccc2F)cc1", "Inhibition": 24.08}, {"smiles": "Cc1cc(=O)n2nc(-c3ccc(C(C)(C)C)cc3)cc2[nH]1", "Inhibition": 14.85}, {"smiles": "O=C(Nc1ccc(Oc2ccc(NC(=O)Nc3ccccc3Cl)cc2)cc1)Nc1ccccc1Cl", "Inhibition": 23.74}, {"smiles": "COc1cc([N+](=O)[O-])ccc1NC(=O)Oc1ccc(NC(C)=O)cc1", "Inhibition": 10.1}, {"smiles": "Clc1[nH]cnc2nccc1-2", "Inhibition": 9.19}, {"smiles": "Oc1ccc(/N=N/c2ccccc2)c(O)c1/N=N/c1ccccc1", "Inhibition": -15.52}, {"smiles": "O=C(/C=C\\c1ccc2ccccc2n1)c1cc(Cl)ccc1O", "Inhibition": -12.14}, {"smiles": "Nc1ccc(C(=O)c2cccs2)cn1", "Inhibition": 7.89}, {"smiles": "Cc1n[nH]c2nc(N)nn2c1=O", "Inhibition": 21.41}, {"smiles": "COc1cc2c(cc1OC)C(C1(O)CCCCC1)NCC2", "note": "(stereo unspecified)", "Inhibition": 12.15}, {"smiles": "Cc1nn(-c2ccccc2)c2c1C(c1ccc([N+](=O)[O-])cc1)C(C#N)=C(N)O2", "note": "(stereo unspecified)", "Inhibition": 20.65}, {"smiles": "O=S(=O)(Oc1ccc(Cl)cc1)c1cccc2cccnc12", "Inhibition": 22.42}, {"smiles": "O=C(CN1CCCC1)Nc1nc(-c2ccc(Cl)cc2)cs1", "Inhibition": -12.45}, {"smiles": "Cc1cc(NC(=O)Nc2cc(F)ccc2F)no1", "Inhibition": 9.73}, {"smiles": "COC(=O)c1ccccc1NCCO", "Inhibition": 21.15}, {"smiles": "Cc1ccc(S(=O)(=O)Oc2cc(N)c3c(n2)CCC3)cc1", "Inhibition": 19.57}, {"smiles": "O=C(c1ccccc1)c1ccc[nH]1", "Inhibition": -20.58}, {"smiles": "Nc1ccc(C(=O)Nc2ccc(NC(=O)c3ccco3)c(O)c2)cc1", "Inhibition": 22.22}, {"smiles": "Cc1ccc(-c2cssc2=S)cc1", "Inhibition": -31.4}, {"smiles": "CN(c1cccnc1)c1[nH]cnc2nncc1-2", "Inhibition": -5.61}, {"smiles": "CSC1=NC=C(C#N)C2=NC(c3ccc(Cl)cc3)NN12", "note": "(stereo unspecified)", "Inhibition": 19.69}, {"smiles": "Cn1ncc2c(Nc3ccc(O)cc3)nc(Cl)nc21", "Inhibition": 4.53}, {"smiles": "O=C(NC(=S)Nc1ccccn1)c1ccccc1", "Inhibition": 11.42}, {"smiles": "O=c1cc(-c2ccc(O)cc2)oc2c(O)c(O)c(O)c(O)c12", "Inhibition": 15.74}, {"smiles": "COc1ccc2c3c([nH]c2c1)[C@H]1C[C@H]2[C@H](C[C@@H](O)[C@H](OC)[C@H]2CO)CN1CC3", "Inhibition": 13.68}, {"smiles": "O=[N+]([O-])c1nc[nH]c1/C=C\\c1ccccc1", "Inhibition": 9.45}, {"smiles": "Cc1nc(N)nc(O)c1CCCNc1ccc(CCC2(CCl)OCCO2)cc1", "Inhibition": 22.01}, {"smiles": "COc1ccc(C2OC3=Nc4cc(C)c(C)cc4NC3=C2O)cc1", "note": "(stereo unspecified)", "Inhibition": 17.42}, {"smiles": "C1CCCC(NC2=NCCO2)CCC1", "Inhibition": -24.38}, {"smiles": "OC(C#Cc1ccccc1)(c1ccccc1)c1ccccc1", "Inhibition": 5.55}, {"smiles": "O=[N+]([O-])c1cccc(/C=C/c2ccccn2)c1", "Inhibition": 19.15}, {"smiles": "CCC(CC)NCCOC(=O)c1ccc([N+](=O)[O-])cc1", "Inhibition": 11.76}, {"smiles": "O=C(N(c1ccccc1)c1ccccc1)N(c1ccccc1)c1ccccc1", "Inhibition": 30.32}, {"smiles": "Oc1ccc2ccccc2c1/N=N/c1ccc(F)cc1", "Inhibition": 0.71}, {"smiles": "CN1C(=O)CC2(C)C1=CCc1scnc12", "note": "(stereo unspecified)", "Inhibition": -0.94}, {"smiles": "CC12C(=O)N(c3nccs3)C(=O)C1(C)C1CCC2O1", "note": "(stereo unspecified)", "Inhibition": 3.99}, {"smiles": "CCOC(=O)c1c(N)ssc1=S", "Inhibition": 0.4}]}]}
